These are yes or no findings as the source states them, for the method shown. Binding seen in cells or lysates may run through a third protein. Some entries that bind do so weakly or less than the wild type.
What was measured:
[1] = molecular target: wild type Orai1 channel (O1-wt), overexpressed (UniProt Q96D31); experiment: co-IP; HeLa cells, mock or transfected, at rest or stimulated with ATP (10 uM) plus TG (1 uM) for 3 min in HEPES-buffered saline with 1.8 mM CaCl2; NP-40 lysis buffer; precipitated with 1 ug anti-Orai1 or anti-Flag and protein A agarose overnight at 4 °C; blot for IP3R; data are the ratio of IP3R signal/Orai1 signal
[2] = molecular target: endogenous Orai1 channel (human (endogenous in HeLa)) (UniProt Q96D31); experiment: as above
[3] = molecular target: Orai1-S27A/S30A (phosphorylation-resistant mutant) (UniProt Q96D31); experiment: as above
[4] = molecular target: Orai1-S27D/S30D (phosphomimetic mutant) (UniProt Q96D31); experiment: as above
eYFP-Orai1 = eYFP-Orai1 (UniProt Q96D31); experiment: proximity ligation; Duolink PLA in fixed, permeabilised HeLa cells expressing eYFP-O1, O1-DD or O1-AA, at rest or after ATP (10 uM) plus TG (1 uM) for 3 min; rabbit anti-Orai1 and mouse anti-IP3R2; red dots per nucleus
[5] = molecular target: Orai1-S27A/S30A (phosphorylation-resistant mutant) (UniProt Q96D31); experiment: as above
[6] = molecular target: Orai1-S27D/S30D (phosphomimetic mutant) (UniProt Q96D31); experiment: as above

Chains of the proteins cited; added tags and fusions are not shown. Lines headed by an entry give the natural chain unless they say otherwise; changes in a name come on top.
UniProt Q96D31: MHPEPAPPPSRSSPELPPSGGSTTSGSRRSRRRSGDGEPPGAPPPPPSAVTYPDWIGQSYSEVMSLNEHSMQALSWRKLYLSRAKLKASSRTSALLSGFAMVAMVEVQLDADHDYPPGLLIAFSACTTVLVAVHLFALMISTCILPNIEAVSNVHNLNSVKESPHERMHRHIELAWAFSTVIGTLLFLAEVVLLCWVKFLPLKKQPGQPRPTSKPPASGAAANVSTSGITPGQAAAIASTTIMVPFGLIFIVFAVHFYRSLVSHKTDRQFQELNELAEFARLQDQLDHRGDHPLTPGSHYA
UniProt Q14571: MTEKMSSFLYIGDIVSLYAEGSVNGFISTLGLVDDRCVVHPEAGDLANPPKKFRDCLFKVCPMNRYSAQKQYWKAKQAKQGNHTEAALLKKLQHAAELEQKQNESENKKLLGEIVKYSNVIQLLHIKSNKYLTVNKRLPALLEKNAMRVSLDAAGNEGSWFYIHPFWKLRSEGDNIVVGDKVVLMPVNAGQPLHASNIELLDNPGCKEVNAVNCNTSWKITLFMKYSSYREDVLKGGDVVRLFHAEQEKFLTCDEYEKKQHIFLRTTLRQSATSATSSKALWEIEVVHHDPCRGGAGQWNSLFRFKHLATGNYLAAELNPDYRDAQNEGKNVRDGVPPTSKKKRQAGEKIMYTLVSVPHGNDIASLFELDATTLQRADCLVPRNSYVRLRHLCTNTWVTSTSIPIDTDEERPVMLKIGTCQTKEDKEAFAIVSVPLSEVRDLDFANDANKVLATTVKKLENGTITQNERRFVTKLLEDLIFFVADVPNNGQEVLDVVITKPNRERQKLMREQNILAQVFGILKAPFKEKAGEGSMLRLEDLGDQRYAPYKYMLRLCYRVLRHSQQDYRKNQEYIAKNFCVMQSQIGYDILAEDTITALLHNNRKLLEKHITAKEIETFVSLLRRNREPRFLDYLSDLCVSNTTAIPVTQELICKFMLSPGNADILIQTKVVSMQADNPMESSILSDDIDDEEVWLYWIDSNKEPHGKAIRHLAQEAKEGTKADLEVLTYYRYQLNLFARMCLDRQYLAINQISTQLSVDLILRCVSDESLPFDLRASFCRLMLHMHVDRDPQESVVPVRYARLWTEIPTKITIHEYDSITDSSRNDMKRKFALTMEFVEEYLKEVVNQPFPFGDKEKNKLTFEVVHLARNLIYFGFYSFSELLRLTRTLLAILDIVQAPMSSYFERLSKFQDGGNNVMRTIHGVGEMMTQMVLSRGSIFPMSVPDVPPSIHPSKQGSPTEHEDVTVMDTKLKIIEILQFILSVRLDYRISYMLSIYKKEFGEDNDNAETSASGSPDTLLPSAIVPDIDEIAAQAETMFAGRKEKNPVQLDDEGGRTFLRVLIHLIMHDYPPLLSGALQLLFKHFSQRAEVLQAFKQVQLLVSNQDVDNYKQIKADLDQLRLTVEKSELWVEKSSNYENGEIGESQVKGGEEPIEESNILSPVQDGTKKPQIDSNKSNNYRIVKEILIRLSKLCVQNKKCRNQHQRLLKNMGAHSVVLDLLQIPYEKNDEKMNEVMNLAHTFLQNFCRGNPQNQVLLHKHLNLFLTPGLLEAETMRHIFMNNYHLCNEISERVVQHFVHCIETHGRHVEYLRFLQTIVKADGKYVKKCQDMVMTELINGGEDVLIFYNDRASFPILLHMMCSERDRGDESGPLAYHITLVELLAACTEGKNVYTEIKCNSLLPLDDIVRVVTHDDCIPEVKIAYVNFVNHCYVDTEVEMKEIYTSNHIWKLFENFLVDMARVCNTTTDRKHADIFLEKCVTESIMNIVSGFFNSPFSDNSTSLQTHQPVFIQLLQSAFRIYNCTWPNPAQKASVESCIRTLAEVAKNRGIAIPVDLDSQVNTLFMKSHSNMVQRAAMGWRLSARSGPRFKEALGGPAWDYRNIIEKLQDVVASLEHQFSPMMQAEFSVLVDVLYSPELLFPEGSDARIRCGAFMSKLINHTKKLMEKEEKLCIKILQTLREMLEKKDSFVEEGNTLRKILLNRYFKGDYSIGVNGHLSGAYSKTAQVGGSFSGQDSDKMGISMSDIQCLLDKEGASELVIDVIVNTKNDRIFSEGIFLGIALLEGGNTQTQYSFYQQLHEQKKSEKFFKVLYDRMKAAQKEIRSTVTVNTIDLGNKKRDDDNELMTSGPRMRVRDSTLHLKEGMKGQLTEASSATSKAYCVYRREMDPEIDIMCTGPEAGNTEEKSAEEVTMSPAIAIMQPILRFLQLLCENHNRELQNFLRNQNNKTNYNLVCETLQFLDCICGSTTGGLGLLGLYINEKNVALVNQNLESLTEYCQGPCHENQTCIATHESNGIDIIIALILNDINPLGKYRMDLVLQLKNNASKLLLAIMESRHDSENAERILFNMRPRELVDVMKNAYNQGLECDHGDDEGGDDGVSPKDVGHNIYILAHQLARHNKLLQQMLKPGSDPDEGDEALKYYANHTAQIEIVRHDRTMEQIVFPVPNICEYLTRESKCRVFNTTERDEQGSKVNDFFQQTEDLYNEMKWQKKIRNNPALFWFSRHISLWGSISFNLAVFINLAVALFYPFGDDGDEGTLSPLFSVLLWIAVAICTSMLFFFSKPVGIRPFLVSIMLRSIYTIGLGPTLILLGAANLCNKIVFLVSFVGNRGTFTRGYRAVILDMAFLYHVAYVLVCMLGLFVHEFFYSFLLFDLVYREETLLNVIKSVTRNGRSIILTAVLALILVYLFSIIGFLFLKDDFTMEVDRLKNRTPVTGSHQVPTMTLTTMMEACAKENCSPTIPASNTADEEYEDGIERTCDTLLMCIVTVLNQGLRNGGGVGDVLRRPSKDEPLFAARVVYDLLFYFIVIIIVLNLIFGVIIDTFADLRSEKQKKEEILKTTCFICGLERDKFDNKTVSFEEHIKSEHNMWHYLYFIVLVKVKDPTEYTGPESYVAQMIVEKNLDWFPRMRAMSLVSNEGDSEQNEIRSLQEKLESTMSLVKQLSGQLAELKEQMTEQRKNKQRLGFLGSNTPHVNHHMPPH

Measured: binding

IP3R2 (from UniProt Q14571 1-2701) (receptor)
binds: [1] | [2] | [3] | [4] | eYFP-Orai1 | [5] | [6]

Source: article PMC9266177
